These are yes or no findings as the source states them, for the method shown. Binding seen in cells or lysates may run through a third protein. A result given as binding can be weak or reduced; the word gives no strength. Sequences can lack the tags named with a protein.
Target: T1, Recombinant GST-hSLP4A (human (from the prefix h in hSlp4-a)) (UniProt Q96C24)
T1 sequence: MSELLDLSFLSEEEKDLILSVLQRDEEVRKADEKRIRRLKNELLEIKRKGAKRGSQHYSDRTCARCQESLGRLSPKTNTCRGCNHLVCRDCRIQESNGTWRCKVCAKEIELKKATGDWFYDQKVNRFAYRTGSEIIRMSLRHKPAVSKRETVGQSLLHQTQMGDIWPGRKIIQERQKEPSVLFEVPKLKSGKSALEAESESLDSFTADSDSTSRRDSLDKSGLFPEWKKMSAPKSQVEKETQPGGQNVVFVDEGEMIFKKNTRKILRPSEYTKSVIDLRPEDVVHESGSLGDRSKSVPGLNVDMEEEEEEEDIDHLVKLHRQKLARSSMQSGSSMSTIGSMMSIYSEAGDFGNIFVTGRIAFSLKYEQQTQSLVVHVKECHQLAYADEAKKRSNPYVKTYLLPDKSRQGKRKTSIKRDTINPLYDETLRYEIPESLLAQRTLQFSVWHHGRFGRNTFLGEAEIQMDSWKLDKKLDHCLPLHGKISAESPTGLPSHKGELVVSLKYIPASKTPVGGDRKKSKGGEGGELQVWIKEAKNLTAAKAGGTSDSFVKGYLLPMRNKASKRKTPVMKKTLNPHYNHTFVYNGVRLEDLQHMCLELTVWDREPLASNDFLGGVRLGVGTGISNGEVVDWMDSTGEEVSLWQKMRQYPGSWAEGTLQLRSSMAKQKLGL
Assay: pull-down; GST-hSLP4A held on glutathione sepharose beads, incubated with astrocyte lysate for 1 hour at 4 °C; lysis buffer 20 mM HEPES, 150 mM NaCl, 0.5% Triton X-100; four washes; western blot for RAB8 and GST; lysates of WT and Dbn-/- astrocytes without or 24 h after scratch injury; only the target …

**Q.** Which binding does the source give for “endogenous GTP-bound RAB8 from astrocytes” here?
**A.** binds
